These results are taken from article PMC2577008, “The Transcriptional Repressor Protein NsrR Senses Nitric Oxide Directly via a [2Fe-2S] Cluster” (PLoS ONE, 2008).

The chains behind the UniProt entries cited, without tags or fusion partners. Where a name states a change or a piece, a line headed by the entry shows the natural chain unless it says otherwise.
UniProt Q9L132: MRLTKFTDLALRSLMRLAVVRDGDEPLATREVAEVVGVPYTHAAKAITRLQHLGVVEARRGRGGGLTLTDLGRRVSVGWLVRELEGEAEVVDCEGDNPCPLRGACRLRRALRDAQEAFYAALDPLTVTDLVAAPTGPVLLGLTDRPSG

The exact form of at least one protein or probe is not confirmed.

The target of the data set is [2Fe-2S] NsrR (holo) (Streptomyces coelicolor) (UniProt Q9L132). The data set is described as follows: EMSA. The following applies: [2Fe-2S] cluster, no NO; EMSA: 10 mM Tris-HCl pH 7.5, 60 mM KCl, on ice 2 min, ~20 ng probe, NsrR diluted to 500 nM in 50 mM Tris pH 7.0 (legend: 50 mM Tris pH 7.0, 100 mM NaCl); recombinant protein; label: 35S-dATP Klenow fill-in; probe letters rebuilt from the primers and the genome; part of a longer molecule.

As for “GACGGACCGCCCCTCGGGATGACGGGCGGCGGCCCCCTGAGGCCGTCGAGCTGTGGCCTAAAACACGAATATCATCTACCAATTAAGGAGTCGCTGTGCTCTCCGAACAGTCCGTTCCCGTGGTCCGAGCCACCCTCCCCGCCGTCGGAGCGGCCATCGGTGACATCGC (double strand) [hmpA1 promoter fragment]”, the binding result is “binds”.

Take “TCCGGCCGCTGTCCGGTCTCACTGAGAAGACGGGCCGCACAGACGGTCCGTGGCACGTCGGAAAACAAGCATCTGAGATCCCAGTTCGGAGTAGGCATGCTCTCCAGTCAGTCGGCCCAGATCGTCCGCGACACGCTCCCCACCGTCGGAGCCTCGCTCGGCACGATC (double strand) [hmpA2 promoter fragment]”: the binding result was “binds”.
